Results deposited as PubChem BioAssay AID1259405 (NCATS, 2018)
Here is an unselected part of about 50,000 reagents. In the full data, about 4,000 (8%) got an active call. 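Mouse siRNA library applied to hamster cells; one well for each siRNA.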 Entries without a mark were called inactive. The numbers tell different reagents against one gene apart.

Screen: 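Silenced genes that increase secreted GFP made by CHO cells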 (primary screen)
Cell system: Chinese hamster CHO-K1 ovary cells with stable secreted eGFP expression
Reagents: single siRNA against mouse genes, 0.8 pmol siRNA per well (2 µl of 400 nM stock)
Duration: 3 days
Measured: 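Percent of the per-plate non-targeting control median for intracellular GFP per well by laser scanning cytometry and for cell viability by ATP luminescence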
Reading the numbers: GFP, % of control: higher = more GFP per well, higher productivity; viability (ATP), % of control: higher = more viable cells (more ATP)
Active means: 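a knock-down is called active if GFP reaches 120% or more of non-targeting control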

gene | siRNA no. | GFP, % of control | viability (ATP), % of control
Vmn1r219 | 1 | 121 (active) | 46.2
Vmn1r219 | 2 | 93.4 | 54.9
Vmn1r219 | 3 | 88 | 95.7
Neto1 | 1 | 71 | 79.1
Neto1 | 2 | 133 (active) | 80.8
Vmn1r174 | 1 | 45.3 | 40.7
Vmn1r174 | 2 | 69.5 | 64.5
Vmn1r174 | 3 | 121 (active) | 86.2
Lrrc58 | 1 | 83 | 109
Lrrc58 | 2 | 59.3 | 77.4
Lrrc58 | 3 | 131 (active) | 111
Or8k1 | 1 | 28.3 | 32.7
Or8k1 | 2 | 64.8 | 22.8
Or8k1 | 3 | 81.9 | 93.5
Apon | 1 | 81.5 | 80.3
Apon | 2 | 55.4 | 57
Apon | 3 | 88.3 | 83.9
Cutc | 1 | 65.3 | 74.8
Cutc | 2 | 111 | 92.7
Cutc | 3 | 85.7 | 80.5
Tpte | 1 | 69.3 | 70.4
Tpte | 2 | 92.6 | 74.5
Tpte | 3 | 90.8 | 89.8
Or5al7 | 1 | 72.2 | 81.5
Or5al7 | 2 | 109 | 59.5
Or5al7 | 3 | 87.8 | 66.2
Sack1a | 1 | 29.9 | 37.8
Sack1a | 2 | 91.4 | 86.7
Sack1a | 3 | 96.8 | 69.5
Olah | 1 | 85.5 | 69.5
Olah | 2 | 32.9 | 35.4
Olah | 3 | 73.2 | 56.8
Psmb10 | 1 | 54.3 | 73.1
Psmb10 | 2 | 77.9 | 58.9
Psmb10 | 3 | 40.7 | 45.1
Hcfc1 | 1 | 57.5 | 74.9
Hcfc1 | 2 | 76 | 65.6
Hcfc1 | 3 | 70.5 | 50.9
Emp2 | 1 | 47.4 | 47.4
Emp2 | 2 | 78.9 | 79
Emp2 | 3 | 89.8 | 74.6
Kdm1a | 1 | 67.6 | 47.7
Kdm1a | 2 | 59.2 | 52.5
Kdm1a | 3 | 169 (active) | 116
Brix1 | 1 | 74.7 | 45.8
Brix1 | 2 | 62.9 | 50
Brix1 | 3 | 88.6 | 64.7
Or12k7 | 1 | 56.7 | 89.9
Or12k7 | 2 | 59.1 | 75.5
Or12k7 | 3 | 64.8 | 46.9
Hivep3 | 1 | 55.7 | 66.2
Hivep3 | 2 | 89.3 | 82.4
Gsn | 1 | 53.8 | 71
Gsn | 2 | 51.7 | 71.4
Bad | 1 | 65.1 | 81.6
Bad | 2 | 92.4 | 97.4
Pate6 | 1 | 76.4 | 101
Pate6 | 2 | 45.9 | 76
Pate6 | 3 | 76.3 | 79.6
